Data published in PubChem BioAssay AID2685 (National Center for Advancing Translational Sciences (NCATS), 2010).
The list shows a part of the results. Further columns of the screen follow, without active or inactive calls. Most of these compounds were active or inconclusive in the main read-out, so they are no random draw. Potencies come from curve fits of mixed quality, noted in brackets.

Test: qHTS Assay for Lipid Storage Modulators in Drosophila S3 Cells;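 as to cell number change: cells counted by Cell Tracker Red CMTPX staining in the red channel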
Conditions: BODIPY lipid droplet fluorescence, 18-24 h; for cell number change: measured here: cell count max response, cells fed with added oleic acid
Outline: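 Laser-scanning cytometry quantifies lipid droplet accumulation (500–530 nm total intensity; droplet/cell object ratio) in oleic acid-fed (400 uM added) Drosophila S3 cells treated with a concentration series. 20 uM Triacsin C defined 100% inhibition.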

[1] = measured here: cell number channel AC50, cells fed with added oleic acid
[2] = measured here: lipid fluorescence (Fed channel) AC50, cells fed with added oleic acid

| SMILES | cell number change [%] | AC50 [1] | AC50 [2] |
| --- | --- | --- | --- |
| CCOC(=O)c1cc(=O)n2nc(-c3ccccc3F)nc2s1 | 12.3 | 0.58 µM [rising, full curve, poor fit] | – |
| CCOc1ccc(Cn2ccnc2CCl)cc1[N+](=O)[O-] | -4.29 | – | 3.26 µM [rising, single point] |
| COc1ccc(CCNC(=O)CN2C(=O)COc3ccc(S(=O)(=O)N4CCCC4)cc32)c(OC)c1 | -8.56 | 0.146 µM [rising, full curve, poor fit] | – |
| Cc1ccc(N2C(=O)c3ccc(C(=O)N4CCN(c5ccc(C)c(C)c5)CC4)cc3C2=O)cc1 | 2.64 | – | 0.0731 µM [falling, full curve, poor fit] |
| Cc1cccc(C)c1NC(=O)CN1CCN(CC(=O)NCC2(N3CCCCC3)CCCCC2)CC1 | 8.92 | – | 3.26 µM [rising, partial curve] |
| CCCCOC(=O)c1ccc(Nc2ccc([N+](=O)[O-])cn2)cc1 | 7.67 | – | 0.58 µM [rising, full curve] |
| COc1ccc(C2c3c(oc4c(C)cc(C)cc4c3=O)C(=O)N2Cc2cccnc2)cc1OC (stereo unspecified) | 26.4 | – | – |
| Cc1cc(CNC(=O)[C@H](C)[C@@H]2C[C@@]2(C)[C@@H](NC(=O)OCc2ccccc2)c2ccccc2)nn1C | – | – | 13 µM [rising, partial curve, poor fit] |
| Nc1ccc2nc(-c3ccccc3)sc2c1 | -24.3 | – | 0.731 µM [rising, full curve] |
| COc1cccc(CN2CCN(C(=O)c3ccc(-c4ccccc4)cc3)CC2)c1OC | -26.6 | – | 29.1 µM [falling, single point] |
| C=CCn1c2ccccc2c(=O)c2cc(C#CC[C@@H](C)O)ccc21 | 6.34 | – | 0.0366 µM [falling, full curve] |
| Cc1csc2nc(=O)c3ccccc3n12 | 231 | 16.4 µM [rising, partial curve] | 1.3 µM [rising, full curve] |
| CC1CCCN(S(=O)(=O)c2cccc3nonc23)C1 (stereo unspecified) | -13.3 | – | 0.651 µM [falling, partial curve, poor fit] |
| CCN(C(=O)COC(=O)c1ccc(COc2ccc3c(C)cc(=O)oc3c2)cc1)C1CCS(=O)(=O)C1 (stereo unspecified) | 12.8 | – | 6.51 µM [rising, single point] |
| COc1cc(CN/C(C)=C(\C#N)C(N)=O)cc(OC)c1OC | – | 6.51 µM [rising, partial curve, poor fit] | – |
| CCOc1ccc(CCNC(=O)Cn2ncn3nc(-c4ccc(OC)cc4)cc3c2=O)cc1 | 6.92 | – | 0.82 µM [falling, single point] |
| O=C(CSc1ncc(-c2ccccc2)n1C1CCCC1)N1CCc2ccccc21 | -39.8 | – | 32.6 µM [falling, single point] |
| CC(C)(C)N1CCC1C(N)=O (stereo unspecified) | 5.8 | – | 0.00411 µM [rising, full curve, poor fit] |
| CN(C)c1ncc(CN2CCC(C(=O)Nc3ccc(-n4cccn4)cc3)CC2)s1 | 23.8 | – | 35.5 µM [rising, partial curve, poor fit] |
| CSc1cccc(NS(=O)(=O)c2ccc3c(c2)CCN3C(C)=O)c1 | -30.1 | 20.6 µM [falling, single point] | 20.6 µM [falling, partial curve] |
| CNC(=O)N1c2ccccc2C=Cc2ccccc21 | 0.702 | – | 3.66 µM [rising, single point] |

| SMILES | cell number change [%] | AC50 [1] | AC50 [2] |
| --- | --- | --- | --- |
| Cn1c(SCc2nnc(-c3ccccc3Br)o2)nc2sc3c(c2c1=O)CCC3 | -34.6 | 9.2 µM [falling, partial curve] | 1.46 µM [rising, full curve] |
| CC(=O)NCCOc1nc(N2CCCCC2)nc(N2CCCCC2)n1 | 6.84 | – | 2.06 µM [rising, partial curve] |
| CCOc1ccccc1CNC(=O)C1CCCN(c2nn3c(=O)cc(C)nc3s2)C1 (stereo unspecified) | 9.92 | – | – |
| COc1ccc(CC(=O)N/N=C(\C)c2ccccn2)cc1 | 18.5 | – | 0.259 µM [rising, full curve, poor fit] |
| O=C(/C=C/c1cccc([N+](=O)[O-])c1)OC1CCCCC1=O (stereo unspecified) | -48.7 | 0.82 µM [falling, full curve] | – |
| Cc1ccc(S(=O)(=O)NC(Cc2ccccc2)C(=O)NN)cc1 (stereo unspecified) | 1.94 | – | 6.51 µM [rising, partial curve] |
| O=C(CN(C(=O)CCC(=O)Nc1nccs1)c1ccc(F)c(Cl)c1)NCC1CCCO1 (stereo unspecified) | 10.4 | – | 0.411 µM [falling, full curve, poor fit] |
| O=C(OCC(=O)c1ccc(Cl)cc1Cl)c1ccc2c(c1)C(=O)N(c1cccc3ncccc13)C2=O | 83.3 | 8.2 µM [rising, partial curve, poor fit] | – |
| CCOc1ccc(CN2CCNC(=O)C2CC(=O)N(C)CC2CCOCC2)cc1 (stereo unspecified) | -0.99 | – | 29.1 µM [rising, single point] |
| CCN(CC)S(=O)(=O)c1cccc(NC(=O)COC(=O)C2CC3C=CC2C3)c1 (stereo unspecified) | -30.4 | – | – |
| Cc1nc2c(ccc3nc(NC(=O)C4CC4)sc32)s1 | -21.9 | – | 29.1 µM [falling, single point] |
| N#CC1=C2N=C(N)c3ccccc3N2C2=C(C(=O)CCC2)C1c1ccccc1F (stereo unspecified) | -18.6 | – | – |
| O=C(NCc1cnn(-c2ccc(F)cc2)c1)C1CCC(=O)N(C2CC2)C1 (stereo unspecified) | 2.89 | – | 29.1 µM [falling, single point] |
| Cc1nc2c(sc(=S)n2Cc2ccco2)c(=O)n1CC(=O)Nc1cc(F)ccc1F | 34.6 | 29.1 µM [rising, single point] | – |
| COc1ccc(-c2cc(COc3ccccc3)on2)cc1 | 50.3 | 16.4 µM [rising, single point] | – |
| CCC(C)N1C(=O)CN(C2CCCCCC2)C(=O)C1c1ccccc1F (stereo unspecified) | – | – | 6.51 µM [rising, single point] |
| O=C(NCCN1CCOCC1)C1CCN(Cc2ccccc2O)CC1 | -51.5 | – | 29.1 µM [falling, single point] |
| O=C(COc1ccc2c3c(c(=O)oc2c1)CCCC3)N1C[C@H]2C[C@@H](C1)c1cccc(=O)n1C2 | 7.92 | – | 29.1 µM [falling, single point] |
| C=CCOc1ccc(CN(C)C(=O)CN2C(=O)c3ccccc3C2=O)cc1 | -1.26 | – | 29.1 µM [rising, single point] |
| CC1CCc2c(sc(N)c2C(N)=O)C1 (stereo unspecified) | 42.8 | – | – |
| CN(C(=O)C1CCN(S(=O)(=O)c2cccs2)CC1)c1ccccc1 | 8.3 | – | 0.206 µM [rising, full curve, poor fit] |

Some entries already given, reduced to cell number change [%].

| SMILES | cell number change [%] |
| --- | --- |
| O=C(COc1ccc2c3c(c(=O)oc2c1)CCCC3)N1C[C@H]2C[C@@H](C1)c1cccc(=O)n1C2 | 7.92 |
| C=CCOc1ccc(CN(C)C(=O)CN2C(=O)c3ccccc3C2=O)cc1 | -1.26 |
| CC1CCc2c(sc(N)c2C(N)=O)C1 (stereo unspecified) | 42.8 |

Compounds listed so far with a cyano group:

| SMILES | cell number change [%] | AC50 [1] | AC50 [2] |
| --- | --- | --- | --- |
| COc1cc(CN/C(C)=C(\C#N)C(N)=O)cc(OC)c1OC | – | 6.51 µM [rising, partial curve, poor fit] | – |
| N#CC1=C2N=C(N)c3ccccc3N2C2=C(C(=O)CCC2)C1c1ccccc1F (stereo unspecified) | -18.6 | – | – |

Additional records.

| SMILES | cell number change [%] | AC50 [1] | AC50 [2] |
| --- | --- | --- | --- |
| CCCn1c(C)cc(C(=O)COc2ccc(S(=O)(=O)N(CC)CC)cc2[N+](=O)[O-])c1C | – | – | 23.1 µM [falling, partial curve, poor fit] |
| Cc1ccccc1Cc1ccc(Cl)nn1 | – | 6.51 µM [rising, single point] | 6.51 µM [rising, single point] |
| O=C(Nc1cccc(Cl)c1)C1C2C=CC3(O2)C1C(=O)N(CCCN1CCCCC1)C3C(=O)NC1CCCCC1 (stereo unspecified) | 10.9 | – | 0.231 µM [falling, full curve, poor fit] |
| CCOC(=O)Nc1ccc([N+](=O)[O-])cc1C | 4.3 | – | 0.146 µM [rising, full curve, poor fit] |
| CCOc1cc(N2CCOCC2)c(OCC)cc1NC(=O)COc1cccc(Cl)c1 | -19.5 | – | 4.61 µM [falling, partial curve] |
| CCOc1[nH]n(-c2ccc(Cl)cc2)c(=O)c1C=NCc1cccnc1 | -9.79 | – | 0.731 µM [rising, single point] |
| O=C(CSc1nc2ccccc2c(=O)n1Cc1ccc(F)cc1)NCc1cccs1 | 3.3 | – | 20.6 µM [rising, single point] |
| O=C(N/C(=C/c1cccc(Br)c1)c1nc(=S)[nH][nH]1)c1ccccc1 | -50.8 | 13 µM [falling, single point] | 13 µM [falling, partial curve] |
| CCn1c(N2CCC(C)CC2)nc2c1c(=O)n(C)c(=O)n2C | -0.179 | – | 0.146 µM [rising, full curve] |
| Cc1ccc(NC(=O)CSc2n[nH]c(-c3ccccn3)n2)cc1 | 11.7 | – | 0.58 µM [rising, single point] |
| O=C(CSc1ncn[nH]1)NC1CC2CCC1C2 (stereo unspecified) | -1.02 | – | – |
| Cc1ccc(S(=O)(=O)N2CCC(C(=O)OCC(=O)N(CC(C)C)C3CCS(=O)(=O)C3)CC2)cc1C (stereo unspecified) | -26.6 | – | 32.6 µM [falling, single point] |
| COc1cc(/C=C2/SC(=S)N(Cc3ccccc3)C2=O)ccc1OS(C)(=O)=O | 0.173 | – | 1.46 µM [rising, full curve, poor fit] |
| CN(CC(=O)NC(=O)NCc1ccccc1)CC(=O)Nc1ccc(Cl)c(Cl)c1 | -28.9 | – | 18.4 µM [falling, partial curve] |
| COc1cc(OC)cc(C(=O)Nc2ccc(C(=O)NCC3CCCO3)cc2)c1 (stereo unspecified) | -19.2 | – | 18.4 µM [falling, partial curve] |
| COc1ccc(OC)c(CN2CCN(c3ccccc3OC)CC2)c1 | 1.27 | – | – |
| CCOc1ccc(S(=O)(=O)N/N=C(\C)c2ccc3c(c2)OCO3)cc1 | 4.96 | – | – |
| CC(=O)Nc1ccc(-c2ccc(NC(C)=O)c(O)c2)cc1O | 20.9 | 6.51 µM [falling, single point] | – |
| O=c1ccc(NS(=O)(=O)c2ccccc2Cl)cn1Cc1ccc(Cl)c(Cl)c1 | -46 | – | – |
| Cc1ccc(C(C)NC(=O)Cn2nc(C)c([N+](=O)[O-])c2C)cc1 (stereo unspecified) | 26 | 6.51 µM [rising, single point] | 0.082 µM [rising, full curve, poor fit] |
